Results deposited as PubChem BioAssay AID1159584 (Peter MacCallum Cancer Centre, 2016).
Screen: 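Knock-downs that harm CDH1-null cells more than parental MCF10A cells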 (primary screen). System: human MCF10A breast epithelial cells, parental and CDH1-null. Reagent: siRNA against human genes. Measured: 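ATP luminescence (CellTiter-Glo) viability per line relative to mean mock wells over all plates, and the ratio of CDH1-null to parental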. Direction: CDH1-null / parental viability ratio: higher = CDH1-null cells survive relatively better than parental; CDH1-null viability vs mock: higher = more viable CDH1-null cells; parental viability vs mock: higher = more viable parental cells.
In all, the deposit lists about 18,000 reagents; shown is an unselected part. No sequences are given here. Not stated in the record: the amount of reagent, the time to read-out.

The opening 5 entries as a preview:
target	CDH1-null / parental viability ratio	CDH1-null viability vs mock (fraction of mock)	parental viability vs mock (fraction of mock)
ZNF784 (zinc finger protein 784)	1	0.66	0.66
KDM4D (lysine demethylase 4D)	1.16	0.92	0.79
ABCC11 (ATP binding cassette subfamily C member 11)	1.01	1.02	1.01
RYR3 (ryanodine receptor 3)	1.34	0.9	0.67
LRRC27 (leucine rich repeat containing 27)	1.16	1.03	0.89

Main list, repeating the preview:
target	CDH1-null / parental viability ratio	CDH1-null viability vs mock (fraction of mock)	parental viability vs mock (fraction of mock)
ZNF784 (zinc finger protein 784)	1	0.66	0.66
KDM4D (lysine demethylase 4D)	1.16	0.92	0.79
ABCC11 (ATP binding cassette subfamily C member 11)	1.01	1.02	1.01
RYR3 (ryanodine receptor 3)	1.34	0.9	0.67
LRRC27 (leucine rich repeat containing 27)	1.16	1.03	0.89
RET (ret proto-oncogene)	0.98	0.84	0.86
ZNF777 (zinc finger protein 777)	0.79	0.38	0.48
BAP1 (BRCA1 associated deubiquitinase 1)	1.22	1.04	0.85
COG4 (component of oligomeric golgi complex 4)	0.81	0.6	0.74
ZYG11B (zyg-11 family member B, cell cycle regulator)	0.89	0.76	0.85
MUSK (muscle associated receptor tyrosine kinase)	0.92	0.7	0.76
TSNAXIP1 (translin associated factor X interacting protein 1)	1	0.77	0.77
ZFHX2 (zinc finger homeobox 2)	1.03	0.8	0.78
ERRFI1 (ERBB receptor feedback inhibitor 1)	1.43	0.66	0.46
GH1 (growth hormone 1)	1.4	0.59	0.42
EVI5 (ecotropic viral integration site 5)	0.85	0.74	0.87
ITPKC (inositol-trisphosphate 3-kinase C)	0.99	0.86	0.87
SLC2A2	0.88	0.69	0.78
PLPPR4 (phospholipid phosphatase related 4)	1.39	0.92	0.66
SNAP29 (synaptosome associated protein 29)	1.12	0.9	0.8
HCCS (holocytochrome c synthase)	1.24	1.09	0.88
MC2R (melanocortin 2 receptor)	0.75	0.76	1.02
NANOS1 (nanos C2HC-type zinc finger 1)	1.09	0.72	0.66
MLNR (motilin receptor)	0.7	0.61	0.87
ANKRD55 (ankyrin repeat domain 55)	1.19	1.08	0.91
GARRE1 (granule associated Rac and RHOG effector 1)	0.93	0.93	1
CEP41 (centrosomal protein 41)	1.08	0.81	0.75
GPRASP3	0.9	0.76	0.84
CTSL (cathepsin L)	1.27	0.76	0.6
MTCL3 (MTCL family member 3)	1.11	0.84	0.76
DHRS4L2 (dehydrogenase/reductase 4 like 2)	1.14	0.95	0.83
SLC35B1	1.13	0.93	0.82
DEFB131A (defensin beta 131A)	1.19	1.02	0.86
OR1M1 (olfactory receptor family 1 subfamily M member 1)	0.72	0.67	0.93
HOOK2 (hook microtubule tethering protein 2)	1.13	0.7	0.62
CYB5R1 (cytochrome b5 reductase 1)	0.97	0.76	0.78
OR56B1 (olfactory receptor family 56 subfamily B member 1)	1.03	0.91	0.88
HNRNPH2 (heterogeneous nuclear ribonucleoprotein H2)	1.24	1.04	0.84
CYP1B1 (cytochrome P450 family 1 subfamily B member 1)	1.11	1	0.9
LRRC25 (leucine rich repeat containing 25)	1.09	0.83	0.76
INO80 (INO80 complex ATPase subunit)	1.16	0.88	0.76
PNMA3 (PNMA family member 3)	1.55	0.48	0.31
HNRNPH1 (heterogeneous nuclear ribonucleoprotein H1)	1.27	1.09	0.86
SPC25 (SPC25 component of NDC80 kinetochore complex)	1.04	0.49	0.47
RPS23 (ribosomal protein S23)	1.15	0.47	0.41
RCN3 (reticulocalbin 3)	1.25	0.45	0.36
